## Results of single-concentration screens

Protein sequences, listed by entry. Tags and fused reporters are not part of them. Residues count along the entry.
UniProt I6X8D2, whole entry: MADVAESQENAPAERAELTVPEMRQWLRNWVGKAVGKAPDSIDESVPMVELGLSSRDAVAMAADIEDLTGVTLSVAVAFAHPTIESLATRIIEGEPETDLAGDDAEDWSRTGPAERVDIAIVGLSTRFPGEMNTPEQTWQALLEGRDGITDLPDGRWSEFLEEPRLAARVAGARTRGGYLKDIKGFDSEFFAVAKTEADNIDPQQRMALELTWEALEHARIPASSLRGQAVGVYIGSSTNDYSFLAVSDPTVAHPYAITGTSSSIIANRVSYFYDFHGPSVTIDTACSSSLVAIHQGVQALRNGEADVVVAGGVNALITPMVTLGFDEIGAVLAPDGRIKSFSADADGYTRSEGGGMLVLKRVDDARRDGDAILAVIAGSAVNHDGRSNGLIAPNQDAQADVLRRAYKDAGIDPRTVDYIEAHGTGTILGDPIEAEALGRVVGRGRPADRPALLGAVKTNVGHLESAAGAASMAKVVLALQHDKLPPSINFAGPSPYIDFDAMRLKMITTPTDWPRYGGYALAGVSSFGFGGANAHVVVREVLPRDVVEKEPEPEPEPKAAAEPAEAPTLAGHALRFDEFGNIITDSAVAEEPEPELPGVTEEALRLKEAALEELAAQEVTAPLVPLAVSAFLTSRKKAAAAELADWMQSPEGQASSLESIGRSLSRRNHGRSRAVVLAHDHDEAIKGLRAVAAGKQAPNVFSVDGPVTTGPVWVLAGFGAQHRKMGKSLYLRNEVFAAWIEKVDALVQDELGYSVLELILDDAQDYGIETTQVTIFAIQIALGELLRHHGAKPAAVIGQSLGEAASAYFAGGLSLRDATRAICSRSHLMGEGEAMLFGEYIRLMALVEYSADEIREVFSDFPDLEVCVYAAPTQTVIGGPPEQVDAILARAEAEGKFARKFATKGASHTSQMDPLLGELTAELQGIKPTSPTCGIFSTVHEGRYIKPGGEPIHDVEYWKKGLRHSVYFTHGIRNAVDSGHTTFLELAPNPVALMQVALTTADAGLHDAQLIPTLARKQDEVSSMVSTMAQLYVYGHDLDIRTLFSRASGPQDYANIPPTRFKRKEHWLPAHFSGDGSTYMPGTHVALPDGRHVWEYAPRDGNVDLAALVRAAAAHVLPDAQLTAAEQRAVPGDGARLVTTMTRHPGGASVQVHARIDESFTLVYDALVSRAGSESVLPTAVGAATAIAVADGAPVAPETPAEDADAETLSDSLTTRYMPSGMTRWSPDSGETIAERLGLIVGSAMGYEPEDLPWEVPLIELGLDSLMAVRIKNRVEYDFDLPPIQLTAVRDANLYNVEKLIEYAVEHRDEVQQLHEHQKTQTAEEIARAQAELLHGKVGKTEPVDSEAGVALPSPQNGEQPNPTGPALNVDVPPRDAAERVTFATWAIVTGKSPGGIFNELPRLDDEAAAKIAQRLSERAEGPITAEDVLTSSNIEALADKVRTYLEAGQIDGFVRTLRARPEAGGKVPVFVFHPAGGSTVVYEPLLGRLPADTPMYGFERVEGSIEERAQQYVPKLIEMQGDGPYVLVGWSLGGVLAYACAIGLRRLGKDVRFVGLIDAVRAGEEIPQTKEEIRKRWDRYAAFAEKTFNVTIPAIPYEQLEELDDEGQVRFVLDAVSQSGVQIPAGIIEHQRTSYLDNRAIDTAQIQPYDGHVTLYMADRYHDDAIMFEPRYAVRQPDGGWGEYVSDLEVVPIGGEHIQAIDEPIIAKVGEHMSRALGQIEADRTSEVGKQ
UniProt Q8IDJ8, 1-583: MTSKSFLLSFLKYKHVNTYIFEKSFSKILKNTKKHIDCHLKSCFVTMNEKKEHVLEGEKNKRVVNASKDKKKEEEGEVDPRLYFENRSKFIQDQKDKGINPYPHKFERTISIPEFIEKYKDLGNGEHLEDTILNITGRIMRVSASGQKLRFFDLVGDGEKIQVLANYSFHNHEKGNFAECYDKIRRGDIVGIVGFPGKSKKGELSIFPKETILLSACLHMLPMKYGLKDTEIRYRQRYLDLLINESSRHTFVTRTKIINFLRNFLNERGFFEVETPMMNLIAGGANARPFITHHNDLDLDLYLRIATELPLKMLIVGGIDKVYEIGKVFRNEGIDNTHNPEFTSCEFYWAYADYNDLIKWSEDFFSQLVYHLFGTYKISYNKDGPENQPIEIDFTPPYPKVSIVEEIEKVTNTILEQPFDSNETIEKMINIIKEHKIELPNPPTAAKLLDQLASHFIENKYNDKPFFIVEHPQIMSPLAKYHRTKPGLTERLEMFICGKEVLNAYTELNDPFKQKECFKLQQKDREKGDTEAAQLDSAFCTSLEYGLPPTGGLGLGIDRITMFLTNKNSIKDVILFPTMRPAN
UniProt P9WNZ1, whole entry: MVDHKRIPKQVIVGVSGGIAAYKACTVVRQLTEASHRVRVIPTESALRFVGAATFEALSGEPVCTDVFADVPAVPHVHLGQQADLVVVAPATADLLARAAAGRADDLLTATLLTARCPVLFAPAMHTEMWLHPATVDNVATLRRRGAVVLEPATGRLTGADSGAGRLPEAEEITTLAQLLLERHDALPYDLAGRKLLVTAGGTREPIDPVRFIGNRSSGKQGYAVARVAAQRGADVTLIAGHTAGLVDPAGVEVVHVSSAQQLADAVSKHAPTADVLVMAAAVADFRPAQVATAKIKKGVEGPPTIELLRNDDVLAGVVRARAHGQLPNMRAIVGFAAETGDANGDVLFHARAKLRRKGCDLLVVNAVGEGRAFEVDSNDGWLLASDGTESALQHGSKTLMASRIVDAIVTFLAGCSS

Source: ChEMBL document CHEMBL3988442, “University of Dundee, Small-Polar-MMV Screening Library” (2021).

Pks13 thioesterase: 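Polyketide synthase Pks13, Mycobacterium tuberculosis (UniProt I6X8D2). Enzyme assay of the thioesterase domain of polyketide synthase 13; the read-out is not stated. Compounds at 30 µM. Higher reads as stronger inhibition (inferred from which compounds were picked for retests). Of about 67,000 compounds tested this way, about 300 (0.46%) reached 50% or more in at least one test.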
PfKRS1: 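Lysine-tRNA ligase, Plasmodium falciparum 3D7 (UniProt Q8IDJ8). Enzyme assay of the cytosolic lysyl-tRNA synthetase in 384-well plates, read by luminescence. Concentration: 30 µM. Direction is inferred from only a few compounds that gave an IC50; most scored high, so higher reads as stronger inhibition. Size under these conditions: about 69,000 compounds, about 49 of them at 50% or above in at least one test.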
CoaBC: 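Enzyme assay of CoaBC with a phosphate dye (Biomol Green) read at 650 nm. Target: Coenzyme A biosynthesis protein CoaBC, Mycobacterium tuberculosis (UniProt P9WNZ1). Concentration: 30 µM. Higher reads as stronger inhibition, judged from the few compounds that gave an IC50. Most strong results did not repeat in a second test. About 67,000 compounds were tested under these conditions; 0.06% (about 40) showed 50% or more at least once.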

The filed quantity is “Percent Effect” (%). The controls that fix the scale are not given in the record; negative values are as filed. Compounds were drawn at random from those tested, without regard to their results.

{"compound": "Cc1cc(N(C)Cc2snnc2C)nc(-c2cccnc2)n1", "Pks13 thioesterase": -12.83, "PfKRS1": 5.845, "CoaBC": 5.925}
{"compound": "O=C(NCCc1cccnc1)c1cn(CCN2CCNCC2)nn1", "Pks13 thioesterase": -17.12, "PfKRS1": 5.762, "CoaBC": 6.311}
{"compound": "CC(C)(N)C(=O)N1CCC(c2nccnc2Oc2cccc(F)c2)CC1", "Pks13 thioesterase": 10.53, "PfKRS1": 0.5329, "CoaBC": -1.214}
{"compound": "CC(C)(NCc1cccc(O)c1)c1ccc2c(c1)OCO2", "Pks13 thioesterase": -35.6, "PfKRS1": 3.779, "CoaBC": -9.569}
{"compound": "COc1ccccc1C1CNCCN1C(C)=O", "stereo": "stereo not drawn", "Pks13 thioesterase": -1.182, "PfKRS1": 4.088, "CoaBC": 0.2331}
{"compound": "COc1ccc2c(c1)C(NCCc1c(C)noc1C)CCCO2", "stereo": "stereo not drawn", "Pks13 thioesterase": -28.15, "PfKRS1": -5.01, "CoaBC": 4.412}
{"compound": "CNS(=O)(=O)c1ccc(C(=O)N2CCCC2c2ccncc2)o1", "stereo": "stereo not drawn", "Pks13 thioesterase": -10.19, "PfKRS1": 2.1, "CoaBC": 5.236}
{"compound": "CN(Cc1ccc(C#N)cc1)Cc1noc(C(C)(C)C)n1", "Pks13 thioesterase": -2.147, "PfKRS1": -1.138, "CoaBC": 2.727}
{"compound": "O=C(c1ccc[nH]1)N1CCCC1c1nc(-c2ccccc2)n[nH]1", "stereo": "stereo not drawn", "Pks13 thioesterase": -1.024, "PfKRS1": 1.634, "CoaBC": 1.229}
{"compound": "CCN(CC)c1ccc(CNC(=O)c2cnc(C)cn2)cn1", "Pks13 thioesterase": -7.114, "PfKRS1": 3.424, "CoaBC": 11.98}
{"compound": "O=c1c(CN2CC3CCCN3C[C@@H]2CCO)coc2ccc(Cl)cc12", "stereo": "stereo partly drawn", "Pks13 thioesterase": 11.76, "PfKRS1": 0.6829, "CoaBC": -1.84}
{"compound": "CS(=O)(=O)Cc1nc(CN2CCc3ccccc3CC2)cs1", "Pks13 thioesterase": 2.567, "PfKRS1": -3.625, "CoaBC": 3.421}
{"compound": "Cc1c(C(=O)N2CC(=O)N(C)C2)nnn1-c1cccc2cccnc12", "Pks13 thioesterase": -9.919, "PfKRS1": 3.858, "CoaBC": 5.556}
{"compound": "O=C(Nc1nc[nH]n1)c1cc(-c2ccc(F)cc2)n[nH]1", "Pks13 thioesterase": -0.9608, "PfKRS1": 0.3621, "CoaBC": -0.7264}
{"compound": "COCCC1(C(=O)O)CCCN(Cc2cc3c(cc2Cl)OCO3)C1", "stereo": "stereo not drawn", "Pks13 thioesterase": -6.853, "PfKRS1": -1.198, "CoaBC": 5.95}
{"compound": "c1ccc(CN2CCc3ncnc(C4CC4)c3CC2)cc1", "Pks13 thioesterase": 9.037, "PfKRS1": 3.293, "CoaBC": 2.746}
{"compound": "Cc1cc(Br)ccc1NCc1ccc(C(=O)N(C)C)[nH]1", "Pks13 thioesterase": 10.29, "PfKRS1": 0.8398, "CoaBC": -3.113}
{"compound": "CN(Cc1ccccn1)C1CCCN(Cc2noc(C3CC3)n2)C1", "stereo": "stereo not drawn", "Pks13 thioesterase": -16, "PfKRS1": 2.143, "CoaBC": 7.171}
{"compound": "Cc1cc(NC(=O)NCC(O)c2ccc(F)cc2)n(C)n1", "stereo": "stereo not drawn", "Pks13 thioesterase": -6.505, "PfKRS1": 1.067, "CoaBC": 7.161}
{"compound": "CCc1cc2cc(OC)c(OC)cc2nc1SCCN1CCCCC1", "Pks13 thioesterase": 40.32, "PfKRS1": 15.45, "CoaBC": 10.02}
{"compound": "Cc1cc(=O)n2ncnc2n1CC(O)COCc1ccccc1Cl", "stereo": "stereo not drawn", "Pks13 thioesterase": 28.12, "PfKRS1": 1.313, "CoaBC": 0.4878}
{"compound": "COCCN1CCn2cc(CNC(=O)c3cnn(C)c3)nc2C1", "PfKRS1": -1.592, "CoaBC": 5.762}
{"compound": "COCCCNC(=O)C(C)n1cc(Br)cn1", "stereo": "stereo not drawn", "Pks13 thioesterase": -12.13, "PfKRS1": -1.733, "CoaBC": -20.09}

3 of the entries, repeated:

| Compound | Pks13 thioesterase | PfKRS1 | CoaBC |
|---|---|---|---|
| `CNS(=O)(=O)c1ccc(C(=O)N2CCCC2c2ccncc2)o1` (stereo not drawn) | -10.19% | 2.1% | 5.236% |
| `CCN(CC)c1ccc(CNC(=O)c2cnc(C)cn2)cn1` | -7.114% | 3.424% | 11.98% |
| `CC(C)(N)C(=O)N1CCC(c2nccnc2Oc2cccc(F)c2)CC1` | 10.53% | 0.5329% | -1.214% |